Reference: PubChem BioAssay AID328 (DTP/NCI, 2004)
The list shows only some results of the screen, not a fair sample: its compounds were picked by chemical class. Other doses and runs of a compound may be missing. T/C is the treated group as % of the vehicle group. Some doses have a count of surviving animals in place of a T/C: the source files T/C as zero there, which appears to mark a toxic dose or a test without result, not a measured value. Survivors were counted at the toxicity check, usually on the fifth day, unless a day is given; later deaths do not show. Schedules are NCI's codes, taken here to give the interval after Q, in days (D) or hours (H), and the number of doses after X. Where survival is the endpoint, this PubChem deposit counts one and a half times the control or more as active, and values a quarter to a half above the control carry no call in these data; other NCI protocols may use other cut-offs. Some doses were run more than once; their values stand side by side, smallest first. Some T/C values carry the count of animals alive at the toxicity check (mostly the fifth day); without a count or a note in brackets, all were alive then.

System: BDF1 mice, P388 leukemia ip, median survival T/C
Test: NCI In Vivo Anticancer Drug Screen. Data for tumor model P388 Leukemia (intraperitoneal) in B6D2F1 (BDF1) mice
Conditions: T/C endpoint: median survival time, higher T/C = longer survival
Description: The antitumor activity of compounds was measured in mice bearing transplantable tumors. Survival or tumor size were measured and the results are expressed as the measurement made in the treated group (T) divided by the measurement made in the vehicle treated control group (C). The tumor model used in this assay is P388 Leukemia (intraperitoneal) in B6D2F1 (BDF1) mice

[1] = dose: 100.0 mg/kg/injection, schedule: Q01DX009 (ip), vehicle: saline
[2] = dose: 200.0 mg/kg/injection, schedule: Q01DX009 (ip), vehicle: saline
[3] = dose: 37.5 mg/kg/injection, schedule: Q01DX009 (ip), vehicle: other
[4] = dose: 75.0 mg/kg/injection, schedule: Q01DX009 (ip), vehicle: other
[5] = dose: 300.0 mg/kg/injection, schedule: Q01DX009 (ip), vehicle: Klucel (hydroxypropylcellulose) (HPC)
[6] = dose: 100.0 mg/kg/injection, schedule: Q04DX003 (ip), vehicle: saline sonified
[7] = dose: 200.0 mg/kg/injection, schedule: Q04DX003 (ip), vehicle: saline sonified

SMILES: CCCCO[P+](=O)OCCCC
- T/C (dose: 50.0 mg/kg/injection, schedule: Q01DX009 (ip), vehicle: saline): 118 % of control
- T/C [1]: 100 % of control
- T/C (dose: 100.0 mg/kg/injection, schedule: Q04DX003 (ip), vehicle: saline with Tween-80): 100 % of control
- T/C [2]: 104 % of control
- T/C (dose: 200.0 mg/kg/injection, schedule: Q04DX003 (ip), vehicle: saline with Tween-80): 100 % of control
- T/C (dose: 400.0 mg/kg/injection, schedule: Q04DX003 (ip), vehicle: saline with Tween-80): 100 % of control

SMILES: ClC1CSC1
- T/C (dose: 8.25 mg/kg/injection, schedule: Q01DX009 (ip), vehicle: saline with Tween-80): 108 % of control
- T/C (dose: 12.5 mg/kg/injection, schedule: Q01DX009 (ip), vehicle: saline with Tween-80): 108 % of control
- T/C (dose: 18.0 mg/kg/injection, schedule: Q01DX009 (ip), vehicle: Klucel (hydroxypropylcellulose) (HPC)): 116 % of control
- T/C (dose: 18.7 mg/kg/injection, schedule: Q01DX009 (ip), vehicle: saline with Tween-80): 108 % of control
- T/C (dose: 18.75 mg/kg/injection, schedule: Q01DX009 (ip), vehicle: other): 154 % of control
- T/C (dose: 27.0 mg/kg/injection, schedule: Q01DX009 (ip), vehicle: Klucel (hydroxypropylcellulose) (HPC)): 116 % of control
- T/C [3]: 195 % of control [5 of 6 alive]
- T/C (dose: 40.0 mg/kg/injection, schedule: Q01DX009 (ip), vehicle: Klucel (hydroxypropylcellulose) (HPC)): 116 % of control
- T/C (dose: 60.0 mg/kg/injection, schedule: Q01DX009 (ip), vehicle: Klucel (hydroxypropylcellulose) (HPC)): 116 % of control
- T/C [4]: 222 % of control [5 of 6 alive]
- T/C (dose: 88.0 mg/kg/injection, schedule: Q01DX009 (ip), vehicle: Klucel (hydroxypropylcellulose) (HPC)): 105 % of control [5 of 6 alive]
- T/C (dose: 100.0 mg/kg/injection, schedule: Q01DX009 (ip), vehicle: saline sonified): 235 % of control
- survivor count (dose: 132.0 mg/kg/injection, schedule: Q01DX009 (ip), vehicle: Klucel (hydroxypropylcellulose) (HPC)): 3 of 6
- survivor count (dose: 200.0 mg/kg/injection, schedule: Q01DX009 (ip), vehicle: Klucel (hydroxypropylcellulose) (HPC)): 2 of 6
- T/C (dose: 200.0 mg/kg/injection, schedule: Q01DX009 (ip), vehicle: saline sonified): 300 % of control
- survivor count [5]: 1 of 6
- T/C (dose: 400.0 mg/kg/injection, schedule: Q01DX009 (ip), vehicle: saline sonified): 130 % of control

SMILES: N=C(N[N+](=O)[O-])N(CCN1CCN=C1N[N+](=O)[O-])N=O
- T/C [1]: 113 % of control [5 of 6 alive]
- T/C [6]: 100 % of control
- T/C [2]: 113 % of control
- T/C [7]: 100 % of control
- T/C (dose: 400.0 mg/kg/injection, schedule: Q01DX009 (ip), vehicle: saline): 113 % of control
- T/C (dose: 400.0 mg/kg/injection, schedule: Q04DX003 (ip), vehicle: saline sonified): 100 % of control

SMILES: CCOC(=O)COc1cccc(N(CCCl)CCCl)c1
- T/C (dose: 8.9 mg/kg/injection, schedule: Q01DX009 (ip), vehicle: other): 115 % of control
- T/C (dose: 13.3 mg/kg/injection, schedule: Q01DX009 (ip), vehicle: other): 124 % of control
- T/C (dose: 19.0 mg/kg/injection, schedule: Q04DX003 (ip), vehicle: Klucel (hydroxypropylcellulose) (HPC)): 100 % of control
- T/C (dose: 20.0 mg/kg/injection, schedule: Q01DX009 (ip), vehicle: other): 142 % of control
- T/C (dose: 21.0 mg/kg/injection, schedule: Q01DX009 (ip), vehicle: Klucel (hydroxypropylcellulose) (HPC)): 138 % of control
- T/C (dose: 29.0 mg/kg/injection, schedule: Q04DX003 (ip), vehicle: Klucel (hydroxypropylcellulose) (HPC)): 142 % of control
- T/C (dose: 30.0 mg/kg/injection, schedule: Q01DX009 (ip), vehicle: Klucel (hydroxypropylcellulose) (HPC)): 155 % of control
- T/C (dose: 30.0 mg/kg/injection, schedule: Q01DX009 (ip), vehicle: other): 142 % of control
- T/C [3]: 133 % of control
- T/C (dose: 45.0 mg/kg/injection, schedule: Q04DX003 (ip), vehicle: Klucel (hydroxypropylcellulose) (HPC)): 155 % of control
- T/C (dose: 50.0 mg/kg/injection, schedule: Q04DX003 (ip), vehicle: saline sonified): 125 % of control
- T/C (dose: 65.0 mg/kg/injection, schedule: Q04DX003 (ip), vehicle: Klucel (hydroxypropylcellulose) (HPC)): 170 % of control
- T/C (dose: 75.0 mg/kg/injection, schedule: Q01DX009 (ip), vehicle: Klucel (hydroxypropylcellulose) (HPC)): 145 % of control
- T/C [4]: 145 % of control
- T/C [6]: 133 % of control
- T/C (dose: 132.0 mg/kg/injection, schedule: Q04DX003 (ip), vehicle: Klucel (hydroxypropylcellulose) (HPC)): 113 and 160 % of control
- T/C (dose: 150.0 mg/kg/injection, schedule: Q01DX009 (ip), vehicle: Klucel (hydroxypropylcellulose) (HPC)): 140 % of control
- T/C (dose: 150.0 mg/kg/injection, schedule: Q01DX009 (ip), vehicle: other): 170 % of control
- T/C (dose: 200.0 mg/kg/injection, schedule: Q04DX003 (ip), vehicle: Klucel (hydroxypropylcellulose) (HPC)): 122 and 155 % of control
- T/C [7]: 166 % of control
- T/C [5]: 190 % of control
- T/C (dose: 300.0 mg/kg/injection, schedule: Q04DX003 (ip), vehicle: Klucel (hydroxypropylcellulose) (HPC)): 159 and 195 % of control

SMILES: COP(C)(=O)N1CCCC1 (centres undefined)
- T/C (dose: 50.0 mg/kg/injection, schedule: Q01DX005 (ip), vehicle: saline with Tween-80): 100 % of control
- T/C (dose: 100.0 mg/kg/injection, schedule: Q01DX005 (ip), vehicle: saline with Tween-80): 100 % of control
- T/C (dose: 200.0 mg/kg/injection, schedule: Q01DX005 (ip), vehicle: saline with Tween-80): 115 % of control
